Assay results: article doi:10.1101/2024.01.15.575768
Results are given in words; binding and its absence hold for the method and conditions named. Binding seen in cells or lysates may run through a third protein. Some binding calls cover weakened binding; strength is not graded here.

Target: FLAG-FTO (human) (UniProt Q9C0B1)
Test: co-IP

binding: binds
B1: endogenous ZBTB48 (protein, UniProt P10074 1-688)
chain: MDGSFVQHSVRVLQELNKQREKGQYCDATLDVGGLVFKAHWSVLACCSHFFQSLYGDGSGGSVVLPAGFAEIFGLLLDFFYTGHLALTSGNRDQVLLAARELRVPEAVELCQSFKPKTSVGQAAGGQSGLGPPASQNVNSHVKEPAGLEEEEVSRTLGLVPRDQEPRGSHSPQRPQLHSPAQSEGPSSLCGKLKQALKPCPLEDKKPEDCKVPPRPLEAEGAQLQGGSNEWEVVVQVEDDGDGDYMSEPEAVLTRRKSNVIRKPCAAEPALSAGSLAAEPAENRKGTAVPVECPTCHKKFLSKYYLKVHNRKHTGEKPFECPKCGKCYFRKENLLEHEARNCMNRSEQVFTCSVCQETFRRRMELRVHMVSHTGEMPYKCSSCSQQFMQKKDLQSHMIKLHGAPKPHACPTCAKCFLSRTELQLHEAFKHRGEKLFVCEECGHRASSRNGLQMHIKAKHRNERPHVCEFCSHAFTQKANLNMHLRTHTGEKPFQCHLCGKTFRTQASLDKHNRTHTGERPFSCEFCEQRFTEKGPLLRHVASRHQEGRPHFCQICGKTFKAVEQLRVHVRRHKGVRKFECTECGYKFTRQAHLRRHMEIHDRVENYNPRQRKLRNLIIEDEKMVVVALQPPAELEVGSAEVIVESLAQGGLASQLPGQRLCAEESFTGPGVLEPSLIITAAVPEDCDT
